Data reported in PubChem BioAssay AID493014 (National Center for Advancing Translational Sciences (NCATS), 2011).
About 170 (0.05%) of roughly 340,000 compounds were called active. Inconclusive means that the source gave no clear call. Such entries were picked first, then a sample of the others. Calls come from the whole dose curve; as a rule, active = well fitted inhibition curve with a large enough effect in the signal ratio, with a control signal flat (not every such curve was filed as active); inconclusive = small, poorly fitted or top-dose-only effect, or effect the other way, or a change in a side signal; inactive = flat fitted curve, though single readings scatter; the % refers to the signal ratio. A potency beside an inconclusive call is a rough fit, not a confirmed value.

Test: qHTS Assay to Find Inhibitors of Chronic Active B-Cell Receptor Signaling;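 for activity change, negative = inhibition: plate controls were basal doxycycline-induced cells for no effect and cells given 10 µM MG132 for full effect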
Conditions: ABC-DLBCL IkBa-CBG/CBR reporter, luminescence ratio (green luciferase fused to IkBa over red control in TMD8 lymphoma cells), 4 h; activity change, negative = inhibition: at 46.1 µM (top of the series)
Summary of the method: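 Cell line TMD8 (human ABC DLBCL), stably expressing tet-inducible CBG68-IkBa fusion and CBR; IMDM/0.5% FBS; cpd up to 46 uM; dox induction, 4 h, 37C/5% CO2; dual luminescence; green/red ratio; MG132 control.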
Potency is the fitted concentration of half-maximal effect.

Compound | activity change, negative = inhibition | Potency
Cc1ccc(CNC(=O)CN(c2cccc([N+](=O)[O-])c2)S(C)(=O)=O)cc1 | inactive | –
Cc1ccccc1Nc1c(-c2ccccn2)nc2ccccn12 | inconclusive: 8.11% | –
C=CCn1c(=NC(=O)c2cccc(N3C(=O)CCC3=O)c2)sc2cccc(OC)c21 | – | inconclusive: 12.6 µM [falling, partial curve, poor fit]
C/C(=N\Nc1nc2c(s1)CCCC2)c1ccc(Cl)cc1 | inactive | –
O=C(Nc1ccc2[nH]ccc2c1)c1ccc(F)cc1 | – | inconclusive: 20 µM [falling, partial curve]
O=C(CCS(=O)(=O)Cc1ccccc1)Nc1ncc([N+](=O)[O-])s1 | inactive | –
COc1ccc2ccc(=O)oc2c1CC(=O)C(C)C | inconclusive: 0.55% | –
CCOC(=O)c1c(N2C(=O)Nc3ccccc3N2O)n[nH]c1-c1cccc(Cl)c1 | inconclusive: -8.44% | –
Cc1cc(/C=N/NC(=O)CC2(C)OCCO2)c(C)n1-c1cc(Cl)cc(Cl)c1 | inconclusive: -0.314% | –
COc1ccc(N=C2S/C(=C\c3ccc(C)s3)C(=O)N2CC(C)C)cc1 | inconclusive: 11.8% | –
CCOc1ncccc1C(=O)NCc1ccccc1F | inactive | –
O=C(Nc1ccc2cn[nH]c2c1)c1ccccc1F | – | inconclusive: 20.6 µM [falling, single point]
CCCC(=O)Nc1sc2c(c1C#N)CC(C)(C)NC2(C)C | – | inconclusive: 29.1 µM [rising, partial curve, poor fit]
CCc1ccc(N2CC(C(=O)OCC(=O)Nc3ccc([N+](=O)[O-])cc3)CC2=O)cc1 (stereo not drawn) | inconclusive: 2.43% | –
O=C(c1ccc(Br)cc1)N(c1ccccn1)C1CCCCC1 | inactive | –
O=c1cnc2ccccc2n1CC1CCCCC1 | inconclusive: -4.77% | –
O=C(c1ccccc1)c1ccccc1N1C(=O)C=CC1=O | inconclusive: 25.5% | –
Cc1nc2ccccc2c(=O)n1NC(=O)/C=C/c1ccccc1Cl | inactive | –
Cc1nc(-c2ccccc2Cl)sc1C(=O)/C=C/N(C)C | – | inconclusive: 1.41 µM [rising, full curve, poor fit]
COc1cccc(/C=C/C(=O)OCC(=O)c2ccccc2)c1OC | inactive | –
CC(C)C(NC(=O)c1c(F)cccc1F)C(=O)NCCc1ccc(S(N)(=O)=O)cc1 (stereo not drawn) | inconclusive: 4.29% | –
Cc1ccc(-c2nn(-c3cc(Cl)ccc3[N+](=O)[O-])c(=O)c3ccccc23)cc1C | inactive | –
C=CC[C@@H](CC(=O)N[C@@H](CO)Cc1ccccc1)C(=O)N[C@@H](COC(=O)[C@@H](CC=C)CC(=O)OC(C)(C)C)Cc1c[nH]c2ccccc12 | inactive | –

Sorted by number of heavy atoms (high to low): 3 of the compounds above
Compound | activity change, negative = inhibition | Potency
CC(C)C(NC(=O)c1c(F)cccc1F)C(=O)NCCc1ccc(S(N)(=O)=O)cc1 (stereo not drawn) | inconclusive: 4.29% | –
Cc1ccc(CNC(=O)CN(c2cccc([N+](=O)[O-])c2)S(C)(=O)=O)cc1 | inactive | –
COc1cccc(/C=C/C(=O)OCC(=O)c2ccccc2)c1OC | inactive | –
